Source: patent US20090192112A1 (REGENTS OF THE UNIVERSITY OF MICHIGAN, published 2009)
Results are given in words; binding and its absence hold for the method and conditions named. In cells and extracts the contact can be indirect. Some entries that bind do so weakly or less than the wild type.

Protein sequences, listed by entry. Tags and fused reporters are not part of them. Residues count along the entry.
UniProt P12830, residues 731-882: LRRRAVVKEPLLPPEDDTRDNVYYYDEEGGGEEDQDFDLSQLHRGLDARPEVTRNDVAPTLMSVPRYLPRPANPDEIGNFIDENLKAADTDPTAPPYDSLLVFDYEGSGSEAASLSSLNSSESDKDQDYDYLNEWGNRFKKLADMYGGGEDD

Molecular target: T1, β-catenin (human, UniProt P35222 2-781)
T1 construct: Endogenous protein in cell lysate; also called beta-catenin
T1 sequence (looked up): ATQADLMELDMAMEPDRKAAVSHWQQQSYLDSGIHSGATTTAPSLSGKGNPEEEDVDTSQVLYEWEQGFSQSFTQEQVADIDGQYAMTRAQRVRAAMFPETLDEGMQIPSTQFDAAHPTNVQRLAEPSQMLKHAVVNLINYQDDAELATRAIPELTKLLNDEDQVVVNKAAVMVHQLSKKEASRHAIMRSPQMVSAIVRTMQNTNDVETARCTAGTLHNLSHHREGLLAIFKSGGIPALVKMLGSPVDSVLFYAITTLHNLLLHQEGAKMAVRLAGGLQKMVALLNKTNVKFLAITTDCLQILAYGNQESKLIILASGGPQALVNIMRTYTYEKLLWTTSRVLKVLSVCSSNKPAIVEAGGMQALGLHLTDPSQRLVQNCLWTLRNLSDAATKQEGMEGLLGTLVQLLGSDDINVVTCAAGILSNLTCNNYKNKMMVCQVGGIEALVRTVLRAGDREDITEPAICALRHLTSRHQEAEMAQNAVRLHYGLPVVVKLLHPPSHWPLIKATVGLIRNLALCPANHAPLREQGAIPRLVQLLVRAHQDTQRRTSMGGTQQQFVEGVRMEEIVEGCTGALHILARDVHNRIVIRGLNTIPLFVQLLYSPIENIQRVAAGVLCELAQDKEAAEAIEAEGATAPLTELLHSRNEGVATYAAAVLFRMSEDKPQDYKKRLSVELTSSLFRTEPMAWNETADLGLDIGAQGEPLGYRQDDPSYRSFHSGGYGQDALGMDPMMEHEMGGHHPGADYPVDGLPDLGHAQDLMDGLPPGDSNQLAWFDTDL
Assay: GST pull-down from HEK 293 lysate (500 ug), anti-β-catenin western blot

Substance: recombinant GST fusion protein containing the cytoplasmic tail of E-cadherin (GST-Ecad) (from UniProt P12830 731-882)
- binding: binds
